Values from PubChem BioAssay AID1224829 (NIAID, 2016)
In all, the deposit lists about 3,800 reagents; shown is an unselected part. 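Calls cover raised and lowered translocation; gene median uses one vendor's three siRNAs; qiagen siRNAs acted more weakly than ambion siRNAs.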 A number with no mark means an inactive call. The numbers tell different reagents against one gene apart. Reagent sequences are not shown.

- Screen: 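Secondary check of hits that alter LPS-induced p65 translocation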 (follow-up of hits)
- Cell system: mouse RAW264.7 G9 macrophage reporter cells
- Knock-down reagent: single siRNA against mouse genes, 100 nM
- Timing: 2 days of siRNA knock-down, then 40 min of LPS before fixing
- Conditions: LPS (Salmonella minnesota R595) at 10 ng/ml
- Measured: 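Imaging of GFP-p65 after 40 min of LPS; nuclear over perinuclear ring intensity ratio, scaled to plate median and non-targeting control wells, given as z-score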
- Scale: p65 translocation z-score and gene median z-score, per vendor: higher = more nuclear NF-kappaB p65 after LPS
- Active means: 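Active means the replicate-mean z-score lies beyond plus or minus 2, in either direction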
- Meaning of the calls: active = changed p65 translocation (either direction); inactive = no clear change

Target gene | reagent no. | siRNA vendor or control pool | p65 translocation z-score, replicate mean | p65 translocation z-score, replicate 1 | p65 translocation z-score, replicate 2 | gene median z-score, per vendor
Psmb7 (GeneID 19177) | 1 | ambion single siRNA | 0.0349 | 0.995 | -0.925 | 0.259
Psmb7 (GeneID 19177) | 2 | ambion single siRNA | -0.116 | -1.4 | 1.17 | 0.259
Psmb7 (GeneID 19177) | 3 | ambion single siRNA | 0.259 | 0.405 | 0.113 | 0.259
Or2t47 (GeneID 258495) | 1 | ambion single siRNA | 0.329 | -0.157 | 0.815 | -0.0564
Or2t47 (GeneID 258495) | 2 | ambion single siRNA | 0.0741 | 0.143 | 0.00552 | -0.0564
Or2t47 (GeneID 258495) | 3 | ambion single siRNA | -0.367 | -0.118 | -0.615 | -0.0564
Or2t47 (GeneID 258495) | 4 | qiagen single siRNA | -0.515 | -1.01 | -0.0164 | -1.57
Or2t47 (GeneID 258495) | 5 | qiagen single siRNA | -5.43 (active) | -5.43 | – | -1.57
Or2t47 (GeneID 258495) | 6 | qiagen single siRNA | -3.63 (active) | -1.57 | -5.68 | -1.57

Laid out differently: results already given
| Target gene | reagent no. | siRNA vendor or control pool | p65 translocation z-score, replicate mean | p65 translocation z-score, replicate 1 | p65 translocation z-score, replicate 2 | gene median z-score, per vendor |
| --- | --- | --- | --- | --- | --- | --- |
| Psmb7 (GeneID 19177) | 2 | ambion single siRNA | -0.116 | -1.4 | 1.17 | 0.259 |
| Psmb7 (GeneID 19177) | 3 | ambion single siRNA | 0.259 | 0.405 | 0.113 | 0.259 |

Continued.
Target gene | reagent no. | siRNA vendor or control pool | p65 translocation z-score, replicate mean | p65 translocation z-score, replicate 1 | p65 translocation z-score, replicate 2 | gene median z-score, per vendor
Atf3 (GeneID 11910) | 1 | ambion single siRNA | -4.41 (active) | -4.88 | -3.95 | -3.59
Atf3 (GeneID 11910) | 2 | ambion single siRNA | -1.58 | -1.78 | -1.38 | -3.59
Atf3 (GeneID 11910) | 3 | ambion single siRNA | -3.72 (active) | -4.23 | -3.22 | -3.59
Atf3 (GeneID 11910) | 4 | qiagen single siRNA | 1.54 | 0.72 | 2.36 | 1.35
Atf3 (GeneID 11910) | 5 | qiagen single siRNA | 2.59 (active) | 1.98 | 3.2 | 1.35
Atf3 (GeneID 11910) | 6 | qiagen single siRNA | -0.782 | 0.299 | -1.86 | 1.35
Il22b (GeneID 116849) | 1 | ambion single siRNA | 1.68 | 1.88 | 1.47 | -2.51
Il22b (GeneID 116849) | 2 | ambion single siRNA | -2.51 (active) | -3.03 | -1.99 | -2.51
Il22b (GeneID 116849) | 3 | ambion single siRNA | -3.97 (active) | -3.94 | -4 | -2.51
Il22b (GeneID 116849) | 4 | qiagen single siRNA | 1.51 | 1.51 | – | 0.708
Il22b (GeneID 116849) | 5 | qiagen single siRNA | 0.857 | 0.708 | 1.01 | 0.708
Il22b (GeneID 116849) | 6 | qiagen single siRNA | -0.743 | -1.31 | -0.175 | 0.708
